According to patent US8329865B2, “Antimicrobially active peptides” (priority 2001, dated 2012):
At least one peptide structure holds a part that was inferred or is arguable (an end, a ring closure or a residue). No end group written: not given here.

Experiments:
[1] = test system: S. aureus 113 wild type; assay: CFU assay, bacterial cell envelope mutants; format: cell-based, Staphylococcus aureus; details: for killing of wild-type bacteria: up to a concentration of 200 μg/ml
[2] = test system: S. epidermidis Δica; format: cell-based, Staphylococcus epidermidis; details: 10 mM NaP-10 mM NaCl, CFU assay
Description: Antimicrobial assays. Antimicrobial assays were performed using the CFU assay as previously described (Rieg, S. et al. 2005 J. Immunol. 174:8003-8010, Schittek, B. et al. 2001 Nat. Immunol. 2:1133-1137). The antibacterial activity of DCD-derived peptides and LL-37 was tested against the following bacterial strains: Escherichia coli ATCC 25922, methicillin-susceptible Staphylococcus aureus ATCC 25923 (MSSA), methicillin-resistant Staphylococcus aureus (MRSA; clinical isolate), Staphylococcus epidermidis ATCC 12228, and Pseudomonas aeruginosa ATCC 27853. […] Absorbance of 1.0 corresponded to 8.56×10^8/ml for E. coli; 1×10^8/ml for E. coli ML-35p; 1.97×10^8/ml for S. aureus, MRSA, and the wild-type and membrane mutants of S. aureus and S. epidermidis; and 5.07×10^8/ml for P. aeruginosa.
After dilution to a concentration of 10^6 CFU/ml, 10-μl portions of the dilutions were incubated at 37° C. for 2 to 4 h with the respective peptide diluted in water in a total volume of 30 μl in 10 mM sodium phosphate buffer-10 mM NaCl (pH 7.0). […] Bacterial colonies were counted after incubation for 18 to 24 h at 37° C. The antimicrobial activity was calculated by using [(cell survival after peptide incubation)/(cell survival in buffer without peptide)×100]. […]

[3] = test system: S. epidermidis 1457 wild type; assay: CFU assay, bacterial cell envelope mutants; format: cell-based, Staphylococcus epidermidis; details: 10 mM NaP-10 mM NaCl
[4] = test system: S. aureus dltA; format: cell-based, Staphylococcus aureus; details: 10 mM NaP-10 mM NaCl, CFU assay
Description: (§1) Antimicrobial assays. Antimicrobial assays were performed using the CFU assay as previously described (Rieg, S. et al. 2005 J. Immunol. 174:8003-8010, Schittek, B. et al. 2001 Nat. Immunol. 2:1133-1137). The antibacterial activity of DCD-derived peptides and LL-37 was tested against the following bacterial strains: Escherichia coli ATCC 25922, methicillin-susceptible Staphylococcus aureus ATCC 25923 (MSSA), methicillin-resistant Staphylococcus aureus (MRSA; clinical isolate), Staphylococcus epidermidis ATCC 12228, and Pseudomonas aeruginosa ATCC 27853. E. coli ML-35p was generously provided by Robert Lehrer (Department of Medicine, Center for Health Sciences, Los Angeles, Calif.) and cultivated on Luria-Bertani (LB) plates containing 50 μg of ampicillin/ml. This strain constitutively expresses cytoplasmic […] but lacks lactose permease (Lehrer, R. I. et al. 1988 J. Immunol. Methods 108:153-158). The bacterial membrane mutants Staphylococcus aureus mprF and dltA and Staphylococcus epidermidis Δica and the corresponding wild-type strains S. aureus 113 and S. epidermidis 1457 were previously described (Gotz, F. 2002 Mol. Microbiol. 43:1367-1378, Peschel, A. et al. 2001 J. Exp. Med. 193:1067-1076). Bacterial cultures were grown to mid-exponential growth phase and washed three times with 10 mM sodium phosphate buffer-10 mM NaCl (pH 7.0). The bacterial concentration was estimated photometrically at 600 nm. Absorbance of 1.0 corresponded to 8.56×10^8/ml for E. coli; 1×10^8/ml for E. coli ML-35p; 1.97×10^8/ml for S. aureus, MRSA, and the wild-type and membrane mutants of S. aureus and S. epidermidis; and 5.07×10^8/ml for P. aeruginosa.
(§2) After dilution to a concentration of 10^6 CFU/ml, 10-μl portions of the dilutions were incubated at 37° C. for 2 to 4 h with the respective peptide diluted in water in a total volume of 30 μl in 10 mM sodium phosphate buffer-10 mM NaCl (pH 7.0). After incubation, the cells were diluted 1:100 in 10 mM sodium phosphate buffer-10 mM NaCl (pH 7.0), and 90 μl of the diluted bacterial suspension was plated in triplicates on blood agar. Bacterial colonies were counted after incubation for 18 to 24 h at 37° C. The antimicrobial activity was calculated by using [(cell survival after peptide incubation)/(cell survival in buffer without peptide)×100]. The LC90 describes the lethal concentration of the current synthetic peptide in μg/ml or μM that leads to a 90% reduction of CFU compared to the buffer control.
(§3) ^aThe 90% inhibitory concentration (IC90) is the concentration of peptide in μg/ml (or in μM [in parentheses]) able to kill 90% of the microorganisms in 10 mM NaP-10 mM NaCl in a CFU assay compared to the control incubated only in buffer without peptide. ND, not determined.

[5] = test system: S. aureus mprF; format: cell-based, Staphylococcus aureus; details: 10 mM NaP-10 mM NaCl, CFU assay
Description: as §1, §2, §3

[6] = test system: S. aureus or E. coli; assay: Time kinetics of antimicrobial activity (CFU assay); format: cell-based, Staphylococcus aureus, Escherichia coli; details: DCD-1L 200 μg/ml, incubation 30, 60, 120 or 180 min

With “LEKGLDGAKKAVGGLGKLGKDAVEDLESVGKGAVHDVKDVLDSVL [LEK-45]” the “killing of wild-type bacteria” value [1] was “did not kill”.

SSLLEKGLDGAKKAVGGLGKLGK [SSL-23] was tested, and the IC90 [2] was greater than 89 µM, the IC90 [3] was greater than 89 µM and the IC90 [4] was 4.5 µM. The IC90 [5] was 22 µM.

For SSLLEKGLDGAKKAVGGLGKLGKDA [SSL-25], the IC90 ([1]; S. aureus 113 wild type, 10 mM NaP-10 mM NaCl, CFU assay) was greater than 82 µM, the IC90 [4] was greater than 82 µM and the IC90 [5] was greater than 82 µM.

In the case of SSLLEKGLDGAKKAVGGLGKLGKDAVEDL [SSL-29], the “killing of wild-type bacteria” value [1] is reported as “did not kill” and the IC90 [5] is reported as greater than 62 µM.

In the case of “SSLLEKGLDGAKKAVGGLGKLGKDAVEDLESVGKGAVHDVKDVLDSVL [DCD-1L]”, the IC90 [2] is reported as greater than 41 µM and the “time to kill the majority of gram-positive and gram-negative bacteria” value [6] is reported as “approximately 2 h”.
